This is one part of the list.
Experiments:
Assay in all cases: log2 fold change, soluble protein after heating vs DMSO (PISA); higher = thermal stabilisation; K562 lysate, 10 uM; active = over 0.2 and 3.5 SD of the protein, either way, in both replicates (recomputed)
[1] = compound: C1=CC=C(C=C1)[C@H](COC2=CC3=C(C=C2)NC(=O)N3)NC(=O)C4=CC=CN(C4=O)CC5=CC(=C(C=C5)F)F
Method in brief: (§1)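 Pellets of K562 cells were dounce-homogenised in PBS pH 7.4 with 1 mM MgCl2, and the crude extract was held at 1 mg/mL protein for a 30 min treatment with 10 μM compound. Aliquots were heated for 3 min over 48°C-58°C and pooled before NP-40 was added to 0.5% at 4°C. The supernatant from 21,000xg for 90 min was quantified by TMTpro 16plex LC-MS/MS with channel sums equalised. Values are reported from duplicates as log-two fold change in thermal stability relative to solvent controls.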

Amino acid sequences for entries named in this document (tags omitted). A change or cut given only in a name is not applied to a line headed by its entry.
UniProt Q56P03: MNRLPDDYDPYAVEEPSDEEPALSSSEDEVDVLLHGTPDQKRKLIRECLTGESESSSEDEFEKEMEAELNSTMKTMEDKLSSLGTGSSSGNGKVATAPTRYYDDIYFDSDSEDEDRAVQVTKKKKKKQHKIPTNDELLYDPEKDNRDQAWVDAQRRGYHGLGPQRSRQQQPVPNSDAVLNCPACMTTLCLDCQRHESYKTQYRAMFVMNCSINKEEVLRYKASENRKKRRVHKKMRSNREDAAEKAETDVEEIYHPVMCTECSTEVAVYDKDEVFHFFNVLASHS
UniProt Q96G46: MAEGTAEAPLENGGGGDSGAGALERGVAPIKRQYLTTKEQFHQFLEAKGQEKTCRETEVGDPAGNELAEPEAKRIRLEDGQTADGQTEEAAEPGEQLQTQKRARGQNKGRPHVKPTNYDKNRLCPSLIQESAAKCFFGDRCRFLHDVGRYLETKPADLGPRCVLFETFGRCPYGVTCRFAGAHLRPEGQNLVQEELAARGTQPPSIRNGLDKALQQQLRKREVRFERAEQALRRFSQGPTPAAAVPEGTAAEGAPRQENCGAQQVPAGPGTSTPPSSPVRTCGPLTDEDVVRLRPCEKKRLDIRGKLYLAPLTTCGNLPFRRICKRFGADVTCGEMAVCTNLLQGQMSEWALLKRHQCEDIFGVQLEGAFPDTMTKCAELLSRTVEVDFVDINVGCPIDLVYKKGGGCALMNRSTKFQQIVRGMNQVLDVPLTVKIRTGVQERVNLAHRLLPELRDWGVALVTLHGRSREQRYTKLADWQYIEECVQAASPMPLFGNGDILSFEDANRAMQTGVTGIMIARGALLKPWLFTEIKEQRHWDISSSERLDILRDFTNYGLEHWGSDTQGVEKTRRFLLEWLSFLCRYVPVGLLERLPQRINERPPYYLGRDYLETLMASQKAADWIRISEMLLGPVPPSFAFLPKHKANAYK
UniProt Q9NTX5: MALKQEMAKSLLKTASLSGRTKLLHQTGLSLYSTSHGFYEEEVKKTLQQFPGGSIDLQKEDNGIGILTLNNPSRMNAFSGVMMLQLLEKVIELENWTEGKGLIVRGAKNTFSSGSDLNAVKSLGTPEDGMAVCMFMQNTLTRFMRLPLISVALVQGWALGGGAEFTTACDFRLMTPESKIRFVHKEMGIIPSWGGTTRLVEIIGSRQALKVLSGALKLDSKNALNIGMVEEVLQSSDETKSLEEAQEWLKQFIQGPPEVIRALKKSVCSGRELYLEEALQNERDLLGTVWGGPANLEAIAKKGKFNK
UniProt O95620: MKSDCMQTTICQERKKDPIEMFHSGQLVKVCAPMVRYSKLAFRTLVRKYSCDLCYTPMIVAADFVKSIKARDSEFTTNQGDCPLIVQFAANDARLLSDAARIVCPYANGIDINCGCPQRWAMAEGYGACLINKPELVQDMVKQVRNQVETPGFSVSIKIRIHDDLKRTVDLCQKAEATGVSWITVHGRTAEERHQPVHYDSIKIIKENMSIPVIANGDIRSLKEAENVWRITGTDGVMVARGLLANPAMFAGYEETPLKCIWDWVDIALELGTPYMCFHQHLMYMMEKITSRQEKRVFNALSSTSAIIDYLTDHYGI
UniProt Q5VYK3, whole entry, looked up: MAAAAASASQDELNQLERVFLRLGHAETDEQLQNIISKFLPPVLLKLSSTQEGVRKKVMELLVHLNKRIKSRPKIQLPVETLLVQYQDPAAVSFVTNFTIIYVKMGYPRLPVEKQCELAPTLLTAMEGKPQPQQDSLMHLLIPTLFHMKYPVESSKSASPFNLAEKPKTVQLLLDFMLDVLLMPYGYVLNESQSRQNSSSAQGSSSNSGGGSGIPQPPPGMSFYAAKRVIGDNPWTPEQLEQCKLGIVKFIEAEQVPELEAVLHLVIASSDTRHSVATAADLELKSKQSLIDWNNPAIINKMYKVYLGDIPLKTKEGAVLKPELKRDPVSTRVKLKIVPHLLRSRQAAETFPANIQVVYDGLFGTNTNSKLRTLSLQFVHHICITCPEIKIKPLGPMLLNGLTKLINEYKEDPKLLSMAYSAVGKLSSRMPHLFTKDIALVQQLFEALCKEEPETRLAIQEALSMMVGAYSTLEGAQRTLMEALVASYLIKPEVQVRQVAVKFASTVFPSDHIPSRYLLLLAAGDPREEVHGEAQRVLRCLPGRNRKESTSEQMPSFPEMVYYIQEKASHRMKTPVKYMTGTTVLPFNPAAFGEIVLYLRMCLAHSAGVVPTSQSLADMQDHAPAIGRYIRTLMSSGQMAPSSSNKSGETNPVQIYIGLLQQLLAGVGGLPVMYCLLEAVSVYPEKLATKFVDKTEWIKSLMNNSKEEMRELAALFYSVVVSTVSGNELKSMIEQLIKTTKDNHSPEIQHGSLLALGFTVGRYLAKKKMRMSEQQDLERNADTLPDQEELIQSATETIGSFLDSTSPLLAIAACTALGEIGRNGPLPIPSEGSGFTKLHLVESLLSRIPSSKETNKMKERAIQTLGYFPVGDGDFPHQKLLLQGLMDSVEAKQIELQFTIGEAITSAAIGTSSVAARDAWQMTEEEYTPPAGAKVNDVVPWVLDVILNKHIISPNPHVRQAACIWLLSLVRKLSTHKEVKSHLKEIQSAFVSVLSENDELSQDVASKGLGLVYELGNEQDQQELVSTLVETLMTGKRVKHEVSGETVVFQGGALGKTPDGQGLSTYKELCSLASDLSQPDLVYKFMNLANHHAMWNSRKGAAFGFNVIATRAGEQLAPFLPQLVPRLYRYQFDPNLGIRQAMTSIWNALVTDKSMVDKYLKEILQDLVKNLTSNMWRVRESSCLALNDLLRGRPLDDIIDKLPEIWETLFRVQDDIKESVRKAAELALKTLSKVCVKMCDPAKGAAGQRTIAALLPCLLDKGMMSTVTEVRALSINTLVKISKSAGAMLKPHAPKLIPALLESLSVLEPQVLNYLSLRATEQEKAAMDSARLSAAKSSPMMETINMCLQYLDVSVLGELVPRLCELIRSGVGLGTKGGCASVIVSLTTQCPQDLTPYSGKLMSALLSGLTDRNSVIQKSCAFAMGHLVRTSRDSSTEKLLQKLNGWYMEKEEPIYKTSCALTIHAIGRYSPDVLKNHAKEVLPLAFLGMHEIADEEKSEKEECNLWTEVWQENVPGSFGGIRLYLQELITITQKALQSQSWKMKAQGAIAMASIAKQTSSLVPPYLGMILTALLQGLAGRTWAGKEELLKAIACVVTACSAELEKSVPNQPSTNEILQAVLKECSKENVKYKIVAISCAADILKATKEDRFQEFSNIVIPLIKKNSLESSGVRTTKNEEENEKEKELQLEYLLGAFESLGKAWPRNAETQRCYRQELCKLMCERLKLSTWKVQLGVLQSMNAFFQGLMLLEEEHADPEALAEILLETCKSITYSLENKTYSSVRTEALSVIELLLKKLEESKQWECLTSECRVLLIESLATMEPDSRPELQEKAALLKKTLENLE
UniProt O60869: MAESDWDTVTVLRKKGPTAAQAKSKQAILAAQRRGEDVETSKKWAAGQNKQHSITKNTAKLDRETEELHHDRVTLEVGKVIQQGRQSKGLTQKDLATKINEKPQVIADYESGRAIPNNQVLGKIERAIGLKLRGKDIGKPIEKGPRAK
UniProt P24534: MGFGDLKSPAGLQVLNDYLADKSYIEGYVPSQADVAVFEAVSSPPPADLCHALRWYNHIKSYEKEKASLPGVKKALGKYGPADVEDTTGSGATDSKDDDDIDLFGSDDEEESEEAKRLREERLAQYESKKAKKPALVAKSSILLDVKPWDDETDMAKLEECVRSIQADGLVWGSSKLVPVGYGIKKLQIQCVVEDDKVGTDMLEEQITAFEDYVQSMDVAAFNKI
UniProt Q01658: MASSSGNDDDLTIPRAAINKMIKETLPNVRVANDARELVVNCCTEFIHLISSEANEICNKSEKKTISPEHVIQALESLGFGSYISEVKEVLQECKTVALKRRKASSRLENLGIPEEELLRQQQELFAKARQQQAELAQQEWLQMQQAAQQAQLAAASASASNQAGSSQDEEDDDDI
UniProt P57772: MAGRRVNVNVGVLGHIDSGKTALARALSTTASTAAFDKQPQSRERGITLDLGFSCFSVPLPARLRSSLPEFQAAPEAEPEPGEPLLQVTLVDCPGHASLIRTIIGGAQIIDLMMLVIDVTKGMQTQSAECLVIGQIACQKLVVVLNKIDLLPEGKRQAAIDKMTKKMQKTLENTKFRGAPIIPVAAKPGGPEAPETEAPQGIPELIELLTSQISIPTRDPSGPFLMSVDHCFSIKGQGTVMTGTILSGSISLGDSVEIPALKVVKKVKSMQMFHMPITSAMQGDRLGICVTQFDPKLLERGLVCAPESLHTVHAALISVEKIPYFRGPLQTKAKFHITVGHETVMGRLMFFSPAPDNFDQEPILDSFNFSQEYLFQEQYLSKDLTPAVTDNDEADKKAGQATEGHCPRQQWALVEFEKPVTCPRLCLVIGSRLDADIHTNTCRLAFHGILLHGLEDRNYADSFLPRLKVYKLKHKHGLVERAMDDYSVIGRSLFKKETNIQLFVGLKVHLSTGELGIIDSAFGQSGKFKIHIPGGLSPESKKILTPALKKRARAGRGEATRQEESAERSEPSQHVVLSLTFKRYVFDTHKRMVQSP
UniProt P63172, whole entry, looked up: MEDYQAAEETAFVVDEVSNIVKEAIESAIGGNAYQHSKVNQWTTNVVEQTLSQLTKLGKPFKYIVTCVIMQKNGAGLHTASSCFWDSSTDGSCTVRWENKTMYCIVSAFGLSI
UniProt Q99956: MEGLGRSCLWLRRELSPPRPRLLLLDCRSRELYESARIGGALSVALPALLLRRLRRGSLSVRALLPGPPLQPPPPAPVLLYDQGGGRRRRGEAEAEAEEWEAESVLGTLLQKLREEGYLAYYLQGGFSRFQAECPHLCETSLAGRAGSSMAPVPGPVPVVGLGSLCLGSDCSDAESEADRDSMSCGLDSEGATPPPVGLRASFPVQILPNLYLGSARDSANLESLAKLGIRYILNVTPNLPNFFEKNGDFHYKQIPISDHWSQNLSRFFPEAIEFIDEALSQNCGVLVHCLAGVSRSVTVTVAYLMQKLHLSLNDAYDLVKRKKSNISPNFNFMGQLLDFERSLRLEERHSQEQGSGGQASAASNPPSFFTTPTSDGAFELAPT
UniProt Q9H9B1: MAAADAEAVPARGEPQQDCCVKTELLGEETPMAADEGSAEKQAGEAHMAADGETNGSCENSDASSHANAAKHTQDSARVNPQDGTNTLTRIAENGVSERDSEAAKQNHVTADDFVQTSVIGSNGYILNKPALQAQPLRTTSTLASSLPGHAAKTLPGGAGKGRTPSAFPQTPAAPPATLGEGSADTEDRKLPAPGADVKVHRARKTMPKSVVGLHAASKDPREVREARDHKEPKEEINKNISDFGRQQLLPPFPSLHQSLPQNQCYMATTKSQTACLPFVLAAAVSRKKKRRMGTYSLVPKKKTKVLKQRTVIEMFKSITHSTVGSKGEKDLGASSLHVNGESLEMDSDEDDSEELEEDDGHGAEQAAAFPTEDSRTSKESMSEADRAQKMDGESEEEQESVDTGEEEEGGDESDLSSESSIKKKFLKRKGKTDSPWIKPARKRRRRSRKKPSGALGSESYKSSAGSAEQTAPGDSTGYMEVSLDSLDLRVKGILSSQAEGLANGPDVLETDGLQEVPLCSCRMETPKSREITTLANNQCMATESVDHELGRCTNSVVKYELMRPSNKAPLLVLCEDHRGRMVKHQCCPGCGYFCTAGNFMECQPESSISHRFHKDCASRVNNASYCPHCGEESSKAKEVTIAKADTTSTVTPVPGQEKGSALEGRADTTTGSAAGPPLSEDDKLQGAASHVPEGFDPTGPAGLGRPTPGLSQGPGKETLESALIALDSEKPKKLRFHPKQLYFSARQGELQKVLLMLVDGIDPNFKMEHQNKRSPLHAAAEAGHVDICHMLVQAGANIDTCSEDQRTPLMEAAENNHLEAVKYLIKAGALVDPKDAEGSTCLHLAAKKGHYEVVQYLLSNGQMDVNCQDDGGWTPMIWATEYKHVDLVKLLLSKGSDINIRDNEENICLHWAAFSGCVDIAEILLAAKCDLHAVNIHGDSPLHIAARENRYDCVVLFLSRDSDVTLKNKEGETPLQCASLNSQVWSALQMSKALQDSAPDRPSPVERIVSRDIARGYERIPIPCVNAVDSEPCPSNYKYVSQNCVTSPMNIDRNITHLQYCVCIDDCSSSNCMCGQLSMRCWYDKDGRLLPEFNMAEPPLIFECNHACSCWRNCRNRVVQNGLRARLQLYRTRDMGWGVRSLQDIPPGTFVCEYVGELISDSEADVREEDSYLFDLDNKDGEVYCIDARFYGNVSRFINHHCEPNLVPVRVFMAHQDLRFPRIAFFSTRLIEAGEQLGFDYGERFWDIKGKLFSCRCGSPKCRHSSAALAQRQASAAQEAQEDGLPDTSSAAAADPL
UniProt Q96FN9: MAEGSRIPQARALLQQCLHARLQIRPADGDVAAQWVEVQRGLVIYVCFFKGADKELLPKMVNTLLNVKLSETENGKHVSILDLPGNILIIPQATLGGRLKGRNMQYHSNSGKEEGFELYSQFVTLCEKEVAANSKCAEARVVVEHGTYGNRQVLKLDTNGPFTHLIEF

[2] = compound: CC1=C(SC2=C1C(=N[C@H](C3=NN=C(N32)C)CC(=O)N)C4=CC=C(C=C4)Cl)C
Method in brief: as §1

[3] = compound: CC1=C2C(=CC=C1)N=C(N(C2=O)C3=CC=CC=C3C)CN4C=NC5=C(N=CN=C54)N
Method in brief: as §1

[4] = compound: Cc1sc2c(c1C)C(c1ccc(Cl)cc1)=N[C@@H](CC(=O)OC(C)(C)C)c1nnc(C)n1-2
Method in brief: as §1

[5] = compound: c1ccc([C@@H]2C[C@H]2NC2CCNCC2)cc1
Method in brief: as §1

Measured: log2 fold change

DRAP1 (UniProt E9PQX9)
inactive: [1] -0.016 | [2] 0.013 | [3] 0.024 | [4] 0.081 | [5] -0.06

E2F3 (UniProt O00716)
inactive: [1] 0.042 | [2] -0.079 | [3] 0.046 | [4] 0 | [5] -0.064

EAPP (UniProt Q56P03)
inactive: [1] 0.008 | [2] 0.048 | [3] 0.137 | [4] 0.029 | [5] -0.079

DUS3L (UniProt Q96G46)
inactive: [1] 0.084 | [2] -0.001 | [3] 0.005 | [4] -0.001 | [5] 0.098

EGLN1 (UniProt Q9GZT9)
inactive: [1] 0.095 | [2] -0.023 | [3] -0.01 | [4] -0.038 | [5] -0.007

ECHDC1 (UniProt Q9NTX5)
inactive: [1] 0.036 | [2] 0.018 | [3] 0.033 | [4] -0.036 | [5] -0.009

DUS4L (UniProt O95620)
inactive: [1] 0.013 | [2] 0.025 | [3] 0.061 | [4] 0.055 | [5] -0.039

DRG1 (UniProt Q9Y295)
inactive: [1] -0.006 | [2] 0.007 | [3] -0.002 | [4] 0.022 | [5] 0.006

DYNC1LI1 (UniProt Q9Y6G9)
inactive: [1] -0.009 | [2] 0.013 | [3] -0.017 | [4] 0 | [5] 0.005

ECM1 isoform 4 (UniProt Q16610)
inactive: [1] -0.012 | [2] -0.005 | [3] 0.021 | [4] -0.027 | [5] -0.007

DYNC1H1 (UniProt Q14204)
inactive: [1] -0.017 | [2] -0.004 | [3] 0.022 | [4] 0.026 | [5] 0.04

DTYMK (UniProt P23919)
inactive: [1] -0.041 | [2] 0.014 | [3] -0.029 | [4] -0.096 | [5] 0.098

ECPAS (UniProt Q5VYK3)
inactive: [1] -0.032 | [2] 0.013 | [3] 0.053 | [4] 0.007 | [5] 0.047

EDF1 (UniProt O60869)
inactive: [1] -0.01 | [2] 0.012 | [3] -0.006 | [4] -0.013 | [5] -0.028

DPP3 (UniProt Q9NY33)
inactive: [1] -0.011 | [2] 0.026 | [3] -0.005 | [4] 0.03 | [5] 0.048

DPF2 (UniProt Q92785)
inactive: [1] -0.011 | [2] 0.02 | [3] -0.031 | [4] 0.079 | [5] 0.032

EEF1A1, A0A087WVQ9
inactive: [1] -0.053 | [2] 0.093 | [3] -0.042 | [4] -0.001 | [5] 0.049

EBP (UniProt Q15125)
inactive: [1] -0.011 | [2] -0.061 | [3] 0.022 | [4] 0.09 | [5] -0.141

EEF1B2 (UniProt P24534)
inactive: [1] 0.018 | [2] 0.004 | [3] 0.025 | [4] -0.015 | [5] 0.011

DSTN (UniProt P60981)
inactive: [1] 0.043 | [2] -0.051 | [3] -0.016 | [4] 0.018 | [5] -0.06

DYNC1LI2 (UniProt O43237)
inactive: [1] -0.001 | [2] -0.053 | [3] 0.031 | [4] -0.112 | [5] 0.008

DPY19L1, A0A1B0GW05
inactive: [1] 0.1 | [2] -0.014 | [3] -0.052 | [4] -0.02 | [5] 0.046

ECD isoform 3 (UniProt O95905)
inactive: [1] -0.016 | [2] -0.014 | [3] 0.049 | [4] 0.053 | [5] -0.018

DPY19L4 (UniProt Q7Z388)
inactive: [1] -0.103 | [2] 0.139 | [3] -0.027 | [4] -0.016 | [5] -0.025

DUSP3 (UniProt P51452)
inactive: [1] 0.009 | [2] 0.018 | [3] -0.021 | [4] -0.003 | [5] -0.013

DR1 (UniProt Q01658)
inactive: [1] 0.019 | [2] 0.031 | [3] -0.044 | [4] 0.001 | [5] -0.033

ECE1 (UniProt P42892)
inactive: [1] -0.053 | [2] 0.074 | [3] 0.001 | [4] -0.006 | [5] 0.002

EFCAB14 (UniProt O75071)
inactive: [1] 0.099 | [2] -0.074 | [3] 0.088 | [4] -0.014 | [5] 0.013

DUSP22 isoform 2 (UniProt Q9NRW4)
inactive: [1] 0.05 | [2] -0.068 | [3] 0.038 | [4] 0.099 | [5] -0.028

DSG2 (UniProt Q14126)
inactive: [1] 0.036 | [2] 0.014 | [3] -0.02 | [4] -0.034 | [5] -0.029

DYNLRB1 (UniProt Q9NP97)
inactive: [1] 0.083 | [2] -0.003 | [3] -0.034 | [4] -0.019 | [5] 0.071

DYRK1A (UniProt Q13627)
inactive: [1] -0.019 | [2] 0.003 | [3] -0.014 | [4] 0.019 | [5] 0.031

EDARADD (UniProt Q8WWZ3)
inactive: [1] 0.074 | [2] -0.088 | [3] -0.032 | [4] -0.037 | [5] 0.064

EEFSEC (UniProt P57772)
inactive: [1] -0.033 | [2] -0.003 | [3] 0.009 | [4] -0.003 | [5] 0.015

EEF2K (UniProt O00418)
inactive: [1] -0.018 | [2] 0 | [3] -0.026 | [4] -0.018 | [5] 0.023

DYNLT1 (UniProt P63172)
inactive: [1] 0.037 | [2] -0.037 | [3] 0.012 | [4] 0.032 | [5] -0.123

ECSIT (UniProt Q9BQ95)
inactive: [1] 0.097 | [2] 0.107 | [3] 0.032 | [4] 0.008 | [5] 0.02

EHMT2 (UniProt A2ABF8)
inactive: [1] 0.037 | [2] 0.007 | [3] 0.019 | [4] 0.029 | [5] 0.012

EED, A0A5F9ZI63
inactive: [1] 0.022 | [2] -0.01 | [3] 0.027 | [4] -0.007 | [5] -0.011

DYNC1I2 isoform 5 (UniProt Q13409)
inactive: [1] 0.049 | [2] -0.03 | [3] -0.012 | [4] -0.018 | [5] 0.021

DUSP9 (UniProt Q99956)
inactive: [1] -0.106 | [2] 0.01 | [3] 0.097 | [4] 0.119 | [5] 0.02

DPYSL2 (UniProt Q16555)
inactive: [1] 0.04 | [2] -0.013 | [3] 0.012 | [4] -0.012 | [5] 0

EIF1AX (UniProt P47813)
inactive: [1] -0.005 | [2] -0.023 | [3] 0.034 | [4] 0.014 | [5] 0.004

2 consecutive records from above, quoted:
DPYSL2 (UniProt Q16555)
inactive: [1] 0.04 | [2] -0.013 | [3] 0.012 | [4] -0.012 | [5] 0

EIF1AX (UniProt P47813)
inactive: [1] -0.005 | [2] -0.023 | [3] 0.034 | [4] 0.014 | [5] 0.004

(listing goes on)

ECHS1 (UniProt P30084)
inactive: [1] -0.018 | [2] 0.024 | [3] -0.008 | [4] 0.035 | [5] 0.023

DPM1 (UniProt O60762)
inactive: [1] -0.01 | [2] 0.048 | [3] 0.022 | [4] 0.073 | [5] 0.093

EEA1 (UniProt Q15075)
inactive: [1] 0.007 | [2] -0.01 | [3] -0.01 | [4] -0.019 | [5] 0.013

EARS2 (UniProt Q5JPH6)
inactive: [1] -0.013 | [2] -0.019 | [3] 0.037 | [4] -0.006 | [5] 0.044

EHMT1 (UniProt Q9H9B1)
inactive: [1] 0.001 | [2] 0.009 | [3] 0.068 | [4] 0.191 | [5] -0.05

DTD2 (UniProt Q96FN9)
inactive: [1] -0.067 | [2] 0.278 | [3] -0.103 | [4] 0.123 | [5] -0.096

DYM (UniProt Q7RTS9)
inactive: [1] 0.021 | [2] -0.008 | [3] 0.003 | [4] 0.025 | [5] 0.013

ECT2 (UniProt Q9H8V3)
inactive: [1] 0.014 | [2] 0.014 | [3] 0.065 | [4] 0.03 | [5] -0.033

DRG2 (UniProt P55039)
inactive: [1] -0.002 | [2] 0.014 | [3] 0.026 | [4] -0.089 | [5] 0.012

E2F4 (UniProt Q16254)
inactive: [1] -0.043 | [2] -0.063 | [3] -0.004 | [4] 0.038 | [5] -0.042
